# From patent publication US20240358831A1, “SELECTION OF IMMUNE CELLS USING PEPTIDE MHC COMPLEXES GENERATED BY CONDITIONAL LIGAND EXCHANGE” (IMMATICS US, INC., priority 2021, published 2024)
# Test: Detection frequency of HLA presented peptides on tumor samples by LC-MS
# Parameters: species or system human
row,Sequence,frequency Tumor [%]
1,"AEIDARNDSF (listed as Homo sapiens) [SPTBN1-001, parental peptide]",89
2,"AESIVVHTY (listed as Homo sapiens) [CSE1-004, parental peptide]",97
3,"ALFLTLTTK (listed as Homo sapiens) [GIBB-001, parental peptide]",99
4,"APRTVALTAL (listed as Homo sapiens) [HLA-DPB1-001, parental peptide]",98
5,"AYVHMVTHF (listed as Homo sapiens) [TEG-001, parental peptide]",99
6,"DAVVKHVL (listed as Homo sapiens) [COPA-007, parental peptide]",95
7,DLERKVESL [VIM-003],99
8,"DLNEKARAL (listed as Homo sapiens) [PDCD10-001, parental peptide]",83
9,"FGLARAFSL (listed as Homo sapiens) [MIR286-001, parental peptide]",92
10,"IIYKGGTSR (listed as Homo sapiens) [GSN-001, parental peptide]",74
11,"ILMEHIHKL (listed as Homo sapiens) [RPL19-001, parental peptide]",86
12,"KYPENFFLL (listed as Homo sapiens) [PPP1CA-001, parental peptide]",100
13,"LLDQGQLNKY (listed as Homo sapiens) [CLTC-001, parental peptide]",98
14,"NENSLFKSL (listed as Homo sapiens) [CLTC-005, parental peptide]",98
15,"NIKKKQEAL (listed as Homo sapiens) [SPTAN-001, parental peptide]",10
16,"RLFVGSIPK (listed as Homo sapiens) [HNRNPR-001, parental peptide]",98
17,"SPRPPLISV (listed as Homo sapiens) [MUDENG-001, parental peptide]",93
18,"STDPRPASY (listed as Homo sapiens) [AXIN1-002, parental peptide]",97
19,"STETSTVLY (listed as Homo sapiens) [MUC16-009, parental peptide]",15
20,"TPKEKAQAL (listed as Homo sapiens) [MKI-002, parental peptide]",4
21,"TVKQKYLSF (listed as Homo sapiens) [LOC646214-002, parental peptide]",72
22,"VTELHVISY (listed as Homo sapiens) [RNF213-009, parental peptide]",96
23,"YLLPAIVHI (listed as Homo sapiens) [DDX5-001, parental peptide]",99
